Source: doi:10.1101/2024.07.23.604321
Results are given in words; binding and its absence hold for the method and conditions named. For some of these results: Binding seen in cells or lysates may run through a third protein. Some entries that bind do so weakly or less than the wild type. Tags and fused reporters may be left off the sequences shown.

The chains behind the UniProt entries cited, without tags or fusion partners.
UniProt Q9BTU6: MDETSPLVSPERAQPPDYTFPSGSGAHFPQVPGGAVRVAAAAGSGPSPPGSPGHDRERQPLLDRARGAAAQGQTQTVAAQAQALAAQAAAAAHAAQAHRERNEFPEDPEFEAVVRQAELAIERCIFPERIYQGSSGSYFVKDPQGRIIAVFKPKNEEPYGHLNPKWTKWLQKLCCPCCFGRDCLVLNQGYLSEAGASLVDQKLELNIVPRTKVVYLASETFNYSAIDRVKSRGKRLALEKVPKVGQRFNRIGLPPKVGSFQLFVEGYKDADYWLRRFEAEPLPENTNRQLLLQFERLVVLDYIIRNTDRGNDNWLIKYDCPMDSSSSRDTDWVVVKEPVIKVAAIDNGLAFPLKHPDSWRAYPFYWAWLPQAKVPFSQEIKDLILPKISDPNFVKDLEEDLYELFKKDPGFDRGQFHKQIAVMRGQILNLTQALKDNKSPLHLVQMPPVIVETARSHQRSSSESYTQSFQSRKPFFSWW

What was measured:
[1] = target: T1, GFP-AH-BAR (ARFIP2 AH-BAR domain, 109-341) (UniProt P53365); test: co-IP
T1 sequence: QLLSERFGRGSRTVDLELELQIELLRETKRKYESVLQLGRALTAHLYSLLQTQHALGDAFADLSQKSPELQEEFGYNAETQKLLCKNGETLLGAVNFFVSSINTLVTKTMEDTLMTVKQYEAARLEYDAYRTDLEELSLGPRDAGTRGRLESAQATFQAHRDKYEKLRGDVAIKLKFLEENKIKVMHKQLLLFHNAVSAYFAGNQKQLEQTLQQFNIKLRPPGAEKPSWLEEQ

[2] = target: T2, GFP-ARFIP Chimera (N-terminal portion of ARFIP2 (1-92) fused with the AH-BAR domain of ARFIP1 (94-341)) (UniProt P53365); test: co-IP
T2 sequence: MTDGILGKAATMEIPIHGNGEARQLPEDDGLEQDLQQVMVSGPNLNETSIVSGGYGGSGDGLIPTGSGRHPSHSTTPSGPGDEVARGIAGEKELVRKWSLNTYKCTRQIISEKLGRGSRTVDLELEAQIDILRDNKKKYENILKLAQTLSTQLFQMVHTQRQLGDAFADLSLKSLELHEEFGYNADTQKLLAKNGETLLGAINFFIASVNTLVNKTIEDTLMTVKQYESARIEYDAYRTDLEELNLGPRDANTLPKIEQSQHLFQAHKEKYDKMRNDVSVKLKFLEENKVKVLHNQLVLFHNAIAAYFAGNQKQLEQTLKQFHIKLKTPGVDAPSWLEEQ

[3] = target: T3, GFP-ARFIP2 (ADP ribosylation factor interacting protein 2, full-length) (UniProt P53365); test: co-IP
T3 sequence: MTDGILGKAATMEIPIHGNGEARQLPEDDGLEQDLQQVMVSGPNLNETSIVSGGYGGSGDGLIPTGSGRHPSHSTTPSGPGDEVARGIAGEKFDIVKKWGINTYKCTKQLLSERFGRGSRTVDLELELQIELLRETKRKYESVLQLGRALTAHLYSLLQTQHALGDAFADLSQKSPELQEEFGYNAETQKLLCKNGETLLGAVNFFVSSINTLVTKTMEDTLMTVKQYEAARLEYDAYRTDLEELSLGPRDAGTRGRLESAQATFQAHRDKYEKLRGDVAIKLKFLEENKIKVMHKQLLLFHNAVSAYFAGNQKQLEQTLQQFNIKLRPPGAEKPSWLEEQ

[4] = target: T4, Flag-ORP9 (of the Flag-ORP9/11 heterodimer) (UniProt Q96SU4); test: affinity co-purification
T4 sequence: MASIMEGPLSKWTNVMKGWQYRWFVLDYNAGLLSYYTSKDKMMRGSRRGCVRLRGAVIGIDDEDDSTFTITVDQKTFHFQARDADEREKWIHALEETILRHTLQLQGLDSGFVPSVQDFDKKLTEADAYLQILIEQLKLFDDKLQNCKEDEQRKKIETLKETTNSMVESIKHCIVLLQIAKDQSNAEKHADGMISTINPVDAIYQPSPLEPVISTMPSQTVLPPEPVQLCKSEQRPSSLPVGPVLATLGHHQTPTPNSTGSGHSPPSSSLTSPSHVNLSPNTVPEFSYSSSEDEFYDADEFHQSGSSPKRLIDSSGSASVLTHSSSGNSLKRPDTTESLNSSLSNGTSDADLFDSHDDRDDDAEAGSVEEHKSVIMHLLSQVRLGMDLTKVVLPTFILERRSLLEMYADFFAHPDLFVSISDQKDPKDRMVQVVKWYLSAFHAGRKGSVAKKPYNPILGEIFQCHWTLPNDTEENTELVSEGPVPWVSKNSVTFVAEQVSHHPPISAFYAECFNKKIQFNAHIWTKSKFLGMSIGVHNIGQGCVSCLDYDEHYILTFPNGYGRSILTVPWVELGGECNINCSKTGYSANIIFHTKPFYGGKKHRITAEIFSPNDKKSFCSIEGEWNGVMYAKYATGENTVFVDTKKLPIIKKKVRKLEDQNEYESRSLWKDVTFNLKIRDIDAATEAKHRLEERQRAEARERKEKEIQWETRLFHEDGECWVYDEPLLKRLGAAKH

With “phosphatidylinositol 4-kinase type 2a (PI4K2A) (from UniProt Q9BTU6 1-479) (enzyme)” the binding [1] was “no binding”, the binding [2] was “binds” and the binding [3] was “binds”.

B1: ORP11 (of the Flag-ORP9/11 heterodimer) (protein, UniProt Q9BXB4 1-747)
chain: MQGGEPVSTMKVSESEGKLEGQATAVTPNKNSSCGGGISSSSSSRGGSAKGWQYSDHMENVYGYLMKYTNLVTGWQYRFFVLNNEAGLLEYFVNEQSRNQKPRGTLQLAGAVISPSDEDSHTFTVNAASGEQYKLRATDAKERQHWVSRLQICTQHHTEAIGKNNPPLKSRSFSLASSSNSPISQRRPSQNAISFFNVGHSKLQSLSKRTNLPPDHLVEVREMMSHAEGQQRDLIRRIECLPTSGHLSSLDQDLLMLKATSMATMNCLNDCFHILQLQHASHQKGSLPSGTTIEWLEPKISLSNHYKNGADQPFATDQSKPVAVPEEQPVAESGLLAREPEEINADDEIEDTCDHKEDDLGAVEEQRSVILHLLSQLKLGMDLTRVVLPTFILEKRSLLEMYADFMSHPDLFIAITNGATAEDRMIRFVEYYLTSFHEGRKGAIAKKPYNPIIGETFHCSWKMPKSEVASSVFSSSSTQGVTNHAPLSGESLTQVGSDCYTVRFVAEQVSHHPPVSGFYAECTERKMCVNAHVWTKSKFLGMSIGVTMVGEGILSLLEHGEEYTFSLPCAYARSILTVPWVELGGKVSVNCAKTGYSASITFHTKPFYGGKLHRVTAEVKHNITNTVVCRVQGEWNSVLEFTYSNGETKYVDLTKLAVTKKRVRPLEKQDPFESRRLWKNVTDSLRESEIDKATEHKHTLEERQRTEERHRTETGTPWKTKYFIKEGDGWVYHKPLWKIIPTTQPAE
With B1 the binding [4] was “binds”.

B2: ORP9 (oxysterol-binding protein-related protein 9) (protein, UniProt Q96SU4 1-736)
chain: T4 sequence
B2 was tested, and the binding [1] was “no binding”, the binding [2] was “binds” and the binding [3] was “binds”.
